Reference: paper PMC9647857
These are yes or no findings as the source states them, for the method shown. In cells and extracts the contact can be indirect. Here binding means that the protein was enriched with, or labelled near, the bait; the list need not be complete.

The chains behind the UniProt entries cited, without tags or fusion partners.
UniProt Q13263: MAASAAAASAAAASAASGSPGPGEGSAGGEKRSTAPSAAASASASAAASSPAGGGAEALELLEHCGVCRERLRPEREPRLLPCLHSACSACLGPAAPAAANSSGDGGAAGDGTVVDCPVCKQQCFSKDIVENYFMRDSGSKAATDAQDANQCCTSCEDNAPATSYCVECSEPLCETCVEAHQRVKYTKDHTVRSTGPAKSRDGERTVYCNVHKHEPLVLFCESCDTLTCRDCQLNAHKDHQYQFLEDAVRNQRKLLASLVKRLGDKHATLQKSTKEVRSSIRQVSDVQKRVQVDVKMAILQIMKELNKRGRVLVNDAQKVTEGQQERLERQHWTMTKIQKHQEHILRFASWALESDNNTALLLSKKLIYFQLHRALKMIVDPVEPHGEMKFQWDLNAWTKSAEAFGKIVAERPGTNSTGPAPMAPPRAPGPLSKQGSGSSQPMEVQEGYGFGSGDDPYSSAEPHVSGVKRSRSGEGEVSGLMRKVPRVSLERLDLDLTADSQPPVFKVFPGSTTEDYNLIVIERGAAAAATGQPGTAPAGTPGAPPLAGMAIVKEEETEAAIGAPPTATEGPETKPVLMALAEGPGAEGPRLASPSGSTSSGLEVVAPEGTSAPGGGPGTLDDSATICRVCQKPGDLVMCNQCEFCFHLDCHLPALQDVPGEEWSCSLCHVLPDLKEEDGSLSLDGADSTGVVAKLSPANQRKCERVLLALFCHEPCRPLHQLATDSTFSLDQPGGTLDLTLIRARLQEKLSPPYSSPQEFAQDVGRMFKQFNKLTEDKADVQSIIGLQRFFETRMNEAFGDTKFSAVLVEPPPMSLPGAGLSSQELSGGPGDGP

T1: CSDE1 (human (endogenous in HepG2 and SK-HEP-1)) (UniProt O75534)
T1 sequence: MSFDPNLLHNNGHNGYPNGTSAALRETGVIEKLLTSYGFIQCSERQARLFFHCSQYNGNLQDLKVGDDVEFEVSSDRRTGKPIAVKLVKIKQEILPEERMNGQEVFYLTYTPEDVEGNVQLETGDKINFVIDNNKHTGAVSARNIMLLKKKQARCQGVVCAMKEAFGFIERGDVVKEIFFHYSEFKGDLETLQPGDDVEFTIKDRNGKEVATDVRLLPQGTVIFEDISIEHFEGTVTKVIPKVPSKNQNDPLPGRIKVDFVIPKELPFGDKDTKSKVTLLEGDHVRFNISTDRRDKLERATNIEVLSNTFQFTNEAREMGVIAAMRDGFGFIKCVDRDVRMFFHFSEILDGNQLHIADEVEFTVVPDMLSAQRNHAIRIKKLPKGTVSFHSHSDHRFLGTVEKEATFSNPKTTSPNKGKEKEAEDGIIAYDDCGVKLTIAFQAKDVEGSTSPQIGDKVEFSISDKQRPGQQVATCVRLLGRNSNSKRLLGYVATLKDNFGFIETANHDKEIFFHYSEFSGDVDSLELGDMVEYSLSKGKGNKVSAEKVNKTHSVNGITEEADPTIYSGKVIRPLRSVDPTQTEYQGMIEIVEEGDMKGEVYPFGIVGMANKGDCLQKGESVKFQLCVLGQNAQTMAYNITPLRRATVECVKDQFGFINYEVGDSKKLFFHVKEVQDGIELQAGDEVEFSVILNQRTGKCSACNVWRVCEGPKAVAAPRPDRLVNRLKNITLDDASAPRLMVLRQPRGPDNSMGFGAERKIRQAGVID


Target: T1, CSDE1 (human (endogenous in HepG2 and SK-HEP-1))
Assay: affinity purification with mass spectrometry; IP-MS: HepG2 lysate precipitated with the CSDE1 antibody at 4°C overnight, Dynabeads Protein G, washed with NP-40 lysis buffer, LC-MS/MS

binding | Molecule
binds | TRIM28 (from UniProt Q13263 1-835)
binds | HERC5 (protein, UniProt Q9UII4 1-1024) MERRSRRKSRRNGRSTAGKAAATQPAKSPGAQLWLFPSAAGLHRALLRRVEVTRQLCCSPGRLAVLERGGAGVQVHQLLAGSGGARTPKCIKLGKNMKIHSVDQGAEHMLILSSDGKPFEYDNYSMKHLRFESILQEKKIIQITCGDYHSLALSKGGELFAWGQNLHGQLGVGRKFPSTTTPQIVEHLAGVPLAQISAGEAHSMALSMSGNIYSWGKNECGQLGLGHTESKDDPSLIEGLDNQKVEFVACGGSHSALLTQDGLLFTFGAGKHGQLGHNSTQNELRPCLVAELVGYRVTQIACGRWHTLAYVSDLGKVFSFGSGKDGQLGNGGTRDQLMPLPVKVSSSEELKLESHTSEKELIMIAGGNQSILLWIKKENSYVNLKRTIPTLNEGTVKRWIADVETKRWQSTKREIQEIFSSPACLTGSFLRKRRTTEMMPVYLDLNKARNIFKELTQKDWITNMITTCLKDNLLKRLPFHSPPQEALEIFFLLPECPMMHISNNWESLVVPFAKVVCKMSDQSSLVLEEYWATLQESTFSKLVQMFKTAVICQLDYWDESAEENGNVQALLEMLKKLHRVNQVKCQLPESIFQVDELLHRLNFFVEVCRRYLWKMTVDASENVQCCVIFSHFPFIFNNLSKIKLLHTDTLLKIESKKHKAYLRSAAIEEERESEFALRPTFDLTVRRNHLIEDVLNQLSQFENEDLRKELWVSFSGEIGYDLGGVKKEFFYCLFAEMIQPEYGMFMYPEGASCMWFPVKPKFEKKRYFFFGVLCGLSLFNCNVANLPFPLALFKKLLDQMPSLEDLKELSPDLGKNLQTLLDDEGDNFEEVFYIHFNVHWDRNDTNLIPNGSSITVNQTNKRDYVSKYINYIFNDSVKAVYEEFRRGFYKMCDEDIIKLFHPEELKDVIVGNTDYDWKTFEKNARYEPGYNSSHPTIVMFWKAFHKLTLEEKKKFLVFLTGTDRLQMKDLNNMKITFCCPESWNERDPIRALTCFSVLFLPKYSTMETVEEALQEAINNNRGFG
